# Measurements published in patent US8158622B2, “Pyrrolopyridine-2-carboxylic acid amide inhibitors of glycogen phosphorylase” (Prosidion Limited, priority 2003, dated 2012).
# Some of these results come from one statement about several compounds together. Some compounds share one range, which may span the group rather than tell each member.
# Target: T1, Rabbit muscle glycogen phosphorylase a (Oryctolagus cuniculus, UniProt P00489)
# T1 construct: purchased Sigma P1261
# T1 sequence (P00489 2-843 limits assumed): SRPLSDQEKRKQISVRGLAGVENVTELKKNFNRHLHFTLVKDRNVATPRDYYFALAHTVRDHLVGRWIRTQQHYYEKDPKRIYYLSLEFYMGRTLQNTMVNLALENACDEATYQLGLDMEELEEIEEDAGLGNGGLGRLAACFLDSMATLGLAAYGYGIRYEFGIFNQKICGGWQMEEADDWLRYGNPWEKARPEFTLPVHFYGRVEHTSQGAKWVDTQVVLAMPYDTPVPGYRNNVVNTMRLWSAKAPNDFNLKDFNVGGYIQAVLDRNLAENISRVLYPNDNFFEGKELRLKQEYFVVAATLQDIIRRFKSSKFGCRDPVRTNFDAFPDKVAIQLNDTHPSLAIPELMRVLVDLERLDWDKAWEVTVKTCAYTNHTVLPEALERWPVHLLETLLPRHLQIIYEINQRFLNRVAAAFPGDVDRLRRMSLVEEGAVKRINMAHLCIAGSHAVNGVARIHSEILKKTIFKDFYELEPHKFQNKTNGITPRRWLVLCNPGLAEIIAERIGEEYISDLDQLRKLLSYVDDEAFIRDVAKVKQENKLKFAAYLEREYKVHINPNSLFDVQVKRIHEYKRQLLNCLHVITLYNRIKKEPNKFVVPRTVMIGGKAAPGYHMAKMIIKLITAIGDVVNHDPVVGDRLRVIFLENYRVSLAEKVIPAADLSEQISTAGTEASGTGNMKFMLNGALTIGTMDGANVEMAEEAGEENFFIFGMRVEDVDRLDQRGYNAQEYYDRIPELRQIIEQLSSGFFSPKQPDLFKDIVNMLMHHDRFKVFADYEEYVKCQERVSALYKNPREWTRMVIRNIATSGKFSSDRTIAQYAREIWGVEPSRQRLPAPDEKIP
# Assay: Glycogen phosphorylase assay in vitro (reverse direction, malachite green phosphate detection)
# Assay type: biochemical
# Settings: 50 mM Hepes pH 7.2, 7.5 mM glucose, 0.5 mM glucose-1-phosphate, 1 mg/mL glycogen, 30° C. for 30 min
# Text: α-D-Glucose-1-phosphate (disodium salt), Glycogen, D-Glucose, Malachite Green Hydrochloride, Ammonium Molybdate tetrahydrate, BSA, HEPES and rabbit muscle phosphorylase α (P1261) were purchased from Sigma. All other reagents were analytical grade.
# Glycogen Phosphorylase Assay In Vitro:
# An assay for glycogen phosphorylase activity in the reverse direction was developed based on the method described by Engers et al., Can. J. Biochem., 1970, 48, 746-754]. Rabbit muscle glycogen phosphorylase a (Sigma) was reconstituted at a stock concentration of 100 μg/mL in 25 mM Tris/HCl. […] in a 96-well plate in a final volume of 100 μL containing 50 mM Hepes pH 7.2, 7.5 mM glucose, 0.5 mM glucose-1-phosphate and 1 mg/mL glycogen. After incubation at 30° C. for 30 min, the inorganic phosphate released from glucose-1-phosphate was measured by the addition of 150 μL of malachite green/molybdate solution prepared as follows: 5 mL of 4.2% ammonium molybdate in 4N HCl, 15 mL of 0.045% malachite green, 50 μL of Tween 20. Following a 30 min incubation at rt, the absorbance was measured at 620 nm. For IC50 determination, 10 μL of a serial dilution of compound (100 μM to 0.004 μM) in DMSO was added to each reaction in duplicate with the equivalent concentration of DMSO added to the control uninhibited reaction. Dose response curves were then obtained by plotting % inhibition versus log10 compound concentration. IC50 is defined as the concentration of compound achieving 50% inhibition under the assay conditions described.
row,SMILES,IC50 [µM]
1,"CN(C)C(=O)[C@H](Cc1ccccc1)NC(=O)c1cc2nc(Cl)ccc2[nH]1 [Example 1, 5-Chloro-1H-pyrrolo[3,2-b]pyridine-2-carboxylic acid (1-dimethylcarbamoyl-2-(S)-phenylethyl)amide]",0.07 to 62.8
2,"CN(C)C(=O)[C@H](Cc1ccccc1)NC(=O)c1cc2cnccc2[nH]1 [Example 2, 1H-pyrrolo[3,2-c]pyridine-2-carboxylic acid (1-dimethylcarbamoyl-2(S)-phenylethyl)amide]",0.07 to 62.8
3,"CN(C)C(=O)[C@H](Cc1ccccc1)NC(=O)c1cc2ccncc2[nH]1 [Example 3, 1H-Pyrrolo[2,3-c]pyridine-2-carboxylic acid (1-dimethylcarbamoyl-2(S)-phenylethyl)amide]",0.07 to 62.8
4,"CN(C)C(=O)[C@H](Cc1ccccc1)NC(=O)c1cc2cc(Cl)ncc2[nH]1 [Example 4, 5-Chloro-1H-pyrrolo[2,3-c]pyridine-2-carboxylic acid (1-dimethylcarbamoyl-2(S)-phenylethyl)amide]",0.07 to 62.8
5,"O=C(N[C@@H](Cc1ccc(F)cc1)C(=O)N1CCC(O)CC1)c1cc2cc(Cl)ncc2[nH]1 [Example 5, 5-Chloro-1H-pyrrolo[2,3-c]pyridine-2-carboxylic acid [1-(S)-(4-fluorobenzyl)-2-(4-hydroxypiperidin-1-yl)-2-oxoethyl]amide]",0.07 to 62.8
6,"O=C(N[C@@H](Cc1ccccc1)[C@@H](O)C(=O)N1C[C@@H](O)[C@@H](O)C1)c1cc2cc(Cl)ncc2[nH]1 [Example 6, 5-Chloro-1H-pyrrolo[2,3-c]pyridine-2-carboxylic acid [1-(S)-benzyl-3-(cis-3,4-dihydroxypyrrolidine-1-yl)-2(R)-hydroxy-3-oxopropyl]amide]",0.07 to 62.8
7,"CN(C)C(=O)[C@H](Cc1ccccc1)NC(=O)c1cc2cc(Br)ncc2[nH]1 [Example 7, 5-Bromo-1H-pyrrolo[2,3-c]pyridine-2-carboxylic acid (1-dimethylcarbamoyl-2-(S)-phenylethyl)amide]",0.07 to 62.8
8,"CN(C)C(=O)[C@H](Cc1ccccc1)NC(=O)c1cc2cccnc2[nH]1 [Example 8, 1H-Pyrrolo[2,3-b]pyridine-2-carboxylic acid (1-dimethylcarbamoyl-2-(S)-phenylethyl)amide]",0.07 to 62.8
9,"O=C(NCCOc1ccccc1)c1cc2cc(Cl)ncc2[nH]1 [Example 9, 5-Chloro-1H-pyrrolo[2,3-c]pyridine-2-carboxylic acid (2-phenoxyethyl)amide]",0.07 to 62.8
10,"O=C(NCCN1CCOCC1)c1cc2cc(Cl)ncc2[nH]1 [Example 10, 5-Chloro-1H-pyrrolo[2,3-c]pyridine-2-carboxylic acid (2-morpholin-4-ylethyl)amide]",0.07 to 62.8
11,"COc1ccc(OCCNC(=O)c2cc3cc(Cl)ncc3[nH]2)cc1 [Example 11, 5-Chloro-1H-pyrrolo[2,3-c]pyridine-2-carboxylic acid [2-(4-methoxyphenoxy)ethyl]amide]",0.07 to 62.8
12,"O=C(NCCc1cccs1)c1cc2cc(Cl)ncc2[nH]1 [Example 12, 57-Chloro-1H-pyrrolo[2,3-c]pyridine-2-carboxylic acid (2-thiophen-2-ylethyl)amide]",0.07 to 62.8
13,"COc1ccccc1CCNC(=O)c1cc2cc(Cl)ncc2[nH]1 [Example 13, 5-Chloro-1H-pyrrolo[2,3-c]pyridine-2-carboxylic acid [2-(2-methoxyphenyl)ethyl]amide]",0.07 to 62.8
14,"O=C(CNC(=O)c1cc2cc(Cl)ncc2[nH]1)c1ccccc1 [Example 14, 5-Chloro-1H-pyrrolo[2,3-c]pyridine-2-carboxylic acid (2-oxo-2-phenylethyl)amide]",0.07 to 62.8
15,"O=C(NCc1nc2ccccc2[nH]1)c1cc2cc(Cl)ncc2[nH]1 [Example 15, 5-Chloro-1H-pyrrolo[2,3-c]pyridine-2-carboxylic acid (1H-benzoimidazol-2-ylmethyl)amide]",0.07 to 62.8
16,"O=C(NCCc1ccccc1)c1cc2cc(Cl)ncc2[nH]1 [Example 16, 5-Chloro-1H-pyrrolo[2,3-c]pyridine-2-carboxylic acid phenethylamide]",0.07 to 62.8
17,"O=C(NCCc1ccc(F)cc1)c1cc2cc(Cl)ncc2[nH]1 [Example 17, 5-Chloro-1H-pyrrolo[2,3-c]pyridine-2-carboxylic acid [2-(4-fluorophenyl)ethyl]amide]",0.07 to 62.8
18,"O=C(NCCSCc1c(F)cccc1Cl)c1cc2cc(Cl)ncc2[nH]1 [Example 18, 5-Chloro-1H-pyrrolo[2,3-c]pyridine-2-carboxylic acid [2-(2-chloro-6-fluorobenzylsulfanyl)ethyl]amide]",0.07 to 62.8
19,"O=C(NCC1COc2ccccc2O1)c1cc2cc(Cl)ncc2[nH]1 (stereo not drawn) [Example 19, 5-Chloro-1H-pyrrolo[2,3-c]pyridine-2-carboxylic acid (2,3-dihydrobenzo[1,4]dioxin-2-ylmethyl)amide]",0.07 to 62.8
20,"O=C(NCCNc1cccc2ccccc12)c1cc2cc(Cl)ncc2[nH]1 [Example 20, 5-Chloro-1H-pyrrolo[2,3-c]pyridine-2-carboxylic acid [2-(naphthalen-1-ylamino)ethyl]amide]",0.07 to 62.8
21,"O=C(NCCOc1ccccc1)c1cc2ccncc2[nH]1 [Example 22, 1H-Pyrrolo[2,3-c]pyridine-2-carboxylic acid (2-phenoxyethyl)amide]",0.07 to 62.8
22,"O=C(NCCOc1ccccc1)c1cc2nc(Cl)ccc2[nH]1 [Example 27, 5-Chloro-1H-pyrrolo[3,2-b]pyridine-2-carboxylic acid (2-phenoxyethyl)amide]",0.07 to 62.8
23,"O=C(CNC(=O)c1cc2cc(Cl)ncc2[nH]1)Nc1ccccc1 [Example 30, 5-Chloro-1H-pyrrolo[2,3-c]pyridine-2-carboxylic acid phenylcarbamoylmethylamide]",0.07 to 62.8
24,"O=C(CNC(=O)c1cc2cc(Cl)ncc2[nH]1)NC1CCOCC1 [Example 31, 5-Chloro-1H-pyrrolo[2,3-c]pyridine-2-carboxylic acid [(tetrahydropyran-4-ylcarbamoyl)methyl]amide]",0.07 to 62.8
25,"O=C(CNC(=O)c1cc2cc(Cl)ncc2[nH]1)NCc1cccs1 [Example 32, 5-Chloro-1H-pyrrolo[2,3-c]pyridine-2-carboxylic acid {[(thiophen-2-ylmethyl)carbamoyl]methyl}amide]",0.07 to 62.8
26,"COc1ccc(NC(=O)CNC(=O)c2cc3cc(Cl)ncc3[nH]2)cc1 [Example 33, 5-Chloro-1H-pyrrolo[2,3-c]pyridine-2-carboxylic acid [(4-methoxyphenylcarbamoyl)methyl]amide]",0.07 to 62.8
27,"O=C(N[C@@H](Cc1ccccc1)C(=O)N1CCCC1)c1cc2cc(Cl)ncc2[nH]1 [Example 34, 5-Chloro-1H-pyrrolo[2,3-c]pyridine-2-carboxylic acid (1-(S)-benzyl-2-oxo-2-pyrrolidin-1-ylethyl)amide]",0.07 to 62.8
28,"O=C(N[C@@H](Cc1ccccc1)C(=O)N1CC[C@H](O)C1)c1cc2cc(Cl)ncc2[nH]1 [Example 35, 5-Chloro-1H-pyrrolo[2,3-c]pyridine-2-carboxylic acid [1-(S)-benzyl-2-(3-(S)-hydroxypyrrolidin-1-yl)-2-oxoethyl]amide]",0.07 to 62.8
29,"O=C(N[C@@H](Cc1ccccc1)C(=O)N1C[C@@H](O)[C@@H](O)C1)c1cc2cc(Cl)ncc2[nH]1 [Example 36, 5-Chloro-1H-pyrrolo[2,3-c]pyridine-2-carboxylic acid [1-(S)-benzyl-2-(3,4-dihydroxypyrrolidine-1-yl)-2-oxo-ethyl]amide]",0.07 to 62.8
30,"O=C(N[C@@H](Cc1ccccc1)C(=O)N1CCSCC1)c1cc2cc(Cl)ncc2[nH]1 [Example 37, 5-Chloro-1H-pyrrolo[2,3-c]pyridine-2-carboxylic acid (1-(S)-benzyl-2-oxo-2-thiomorpholin-4-ylethyl)amide]",0.07 to 62.8
